{"source": "patent US9737610B2", "about": "(priority 2010, dated 2017)", "assay": "Physical stability assessment in pH 6.5 FASSIF buffer at 37° C. (PLM)", "format": "physicochemical", "note": "Some entries share one result that the patent states for a list of compounds."}
{"molecule": "CO[C@H]1/C=C/O[C@@]2(C)Oc3c(C)c(O)c4c(O)c(c5c(nc6cc(C)ccn65)c4c3C2=O)NC(=O)/C(C)=C\\C=C\\[C@H](C)[C@H](O)[C@@H](C)[C@@H](O)[C@@H](C)[C@H](OC(C)=O)[C@@H]1C", "note": "[(100:0) Rifaximin-only, Rifaximin]", "values": [{"measurement": "time at which crystallization (birefringence/extinctions) was observed", "value": "≤ 6", "unit": "h"}]}
